Reference: paper doi:10.1101/2023.06.30.547196

By UniProt entry, the sequences of proteins in these tests, tags left out. Where a name states a change or a piece, a line headed by the entry shows the natural chain unless it says otherwise.
UniProt Q8NCF5: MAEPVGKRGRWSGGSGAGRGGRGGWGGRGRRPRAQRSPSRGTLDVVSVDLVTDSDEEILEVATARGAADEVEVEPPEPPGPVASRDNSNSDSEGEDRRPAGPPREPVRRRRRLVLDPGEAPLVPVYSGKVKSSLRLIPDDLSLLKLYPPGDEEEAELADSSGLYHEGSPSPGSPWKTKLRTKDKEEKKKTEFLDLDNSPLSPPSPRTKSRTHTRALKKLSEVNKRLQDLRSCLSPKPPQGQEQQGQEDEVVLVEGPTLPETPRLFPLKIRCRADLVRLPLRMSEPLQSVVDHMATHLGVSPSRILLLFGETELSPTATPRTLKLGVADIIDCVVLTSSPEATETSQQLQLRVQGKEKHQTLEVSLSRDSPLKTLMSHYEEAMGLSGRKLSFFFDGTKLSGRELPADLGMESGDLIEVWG
UniProt Q8IY18: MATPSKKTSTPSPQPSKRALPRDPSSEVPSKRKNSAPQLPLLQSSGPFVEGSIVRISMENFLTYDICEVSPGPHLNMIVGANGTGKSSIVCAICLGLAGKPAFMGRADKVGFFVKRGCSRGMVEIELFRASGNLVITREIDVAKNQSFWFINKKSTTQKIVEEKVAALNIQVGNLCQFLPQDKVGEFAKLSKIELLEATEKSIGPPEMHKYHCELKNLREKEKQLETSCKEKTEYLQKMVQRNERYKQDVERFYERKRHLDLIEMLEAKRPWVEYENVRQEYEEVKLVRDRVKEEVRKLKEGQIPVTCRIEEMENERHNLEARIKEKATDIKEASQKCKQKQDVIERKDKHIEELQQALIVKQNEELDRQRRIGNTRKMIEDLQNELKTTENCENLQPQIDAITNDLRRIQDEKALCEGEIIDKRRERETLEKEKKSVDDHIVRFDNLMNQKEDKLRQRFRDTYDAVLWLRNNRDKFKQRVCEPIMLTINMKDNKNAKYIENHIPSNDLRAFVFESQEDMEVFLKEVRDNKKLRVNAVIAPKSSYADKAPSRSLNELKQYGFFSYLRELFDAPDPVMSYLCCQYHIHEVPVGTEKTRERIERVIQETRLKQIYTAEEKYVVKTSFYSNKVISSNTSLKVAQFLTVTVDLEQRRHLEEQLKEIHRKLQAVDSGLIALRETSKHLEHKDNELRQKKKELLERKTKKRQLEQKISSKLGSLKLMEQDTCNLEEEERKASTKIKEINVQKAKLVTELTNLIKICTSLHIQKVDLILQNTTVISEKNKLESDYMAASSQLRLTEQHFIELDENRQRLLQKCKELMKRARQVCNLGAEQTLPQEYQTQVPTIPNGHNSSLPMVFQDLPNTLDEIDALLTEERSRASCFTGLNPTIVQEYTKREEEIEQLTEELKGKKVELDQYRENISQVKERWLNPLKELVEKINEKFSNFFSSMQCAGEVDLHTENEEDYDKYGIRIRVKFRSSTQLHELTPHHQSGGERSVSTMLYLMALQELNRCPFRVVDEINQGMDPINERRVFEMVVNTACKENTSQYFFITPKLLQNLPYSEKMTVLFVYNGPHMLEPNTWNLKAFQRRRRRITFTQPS

Target: Flag-tagged NFATC2IP ΔSLD2 (human) (UniProt Q8NCF5)
Assay: co-IP

With “endogenous SMC5 (from UniProt Q8IY18 1-1101)” the binding was “binds”.

Results are given in words; binding and its absence hold for the method and conditions named. Binding seen in cells or lysates may run through a third protein. Binding calls can cover weak binding; strength is not graded here.
